This experiment has as its target T1, Ubiquitin-like PHD and RING finger domain-containing protein 1 (human (endogenous in HDF)) (UniProt Q96T88).
T1 sequence: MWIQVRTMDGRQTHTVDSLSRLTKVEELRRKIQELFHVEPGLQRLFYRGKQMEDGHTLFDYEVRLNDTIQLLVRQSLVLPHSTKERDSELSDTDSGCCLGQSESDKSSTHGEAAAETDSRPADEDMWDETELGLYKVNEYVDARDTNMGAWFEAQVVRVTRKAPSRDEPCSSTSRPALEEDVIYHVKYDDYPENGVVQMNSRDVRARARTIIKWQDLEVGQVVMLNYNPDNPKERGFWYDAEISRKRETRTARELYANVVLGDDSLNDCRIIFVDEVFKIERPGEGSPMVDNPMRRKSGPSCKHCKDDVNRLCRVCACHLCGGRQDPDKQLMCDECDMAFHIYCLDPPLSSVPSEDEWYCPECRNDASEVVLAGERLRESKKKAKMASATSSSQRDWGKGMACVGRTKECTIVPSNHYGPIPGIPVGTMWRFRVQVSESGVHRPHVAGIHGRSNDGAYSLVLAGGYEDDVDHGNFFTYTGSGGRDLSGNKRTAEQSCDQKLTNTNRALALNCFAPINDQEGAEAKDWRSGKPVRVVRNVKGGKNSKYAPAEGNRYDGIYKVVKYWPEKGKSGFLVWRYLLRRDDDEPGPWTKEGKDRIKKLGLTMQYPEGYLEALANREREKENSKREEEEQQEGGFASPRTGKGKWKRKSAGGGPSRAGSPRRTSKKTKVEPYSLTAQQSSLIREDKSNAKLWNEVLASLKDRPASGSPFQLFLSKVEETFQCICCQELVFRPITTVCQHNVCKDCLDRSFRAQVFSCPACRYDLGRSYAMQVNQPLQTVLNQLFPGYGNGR
Nature of the experiment: co-IP; anti-UHRF1 antibody on Dynabeads Protein A, 0.5 mg pre-cleared lysate of HDFs kept in hypoxia and treated with MG132, AD-04 or DMSO; 10 min at room temperature, washed with TBS-T; blot with anti-USP7.

By UniProt entry, the sequences of proteins in these tests, tags left out.
UniProt Q93009: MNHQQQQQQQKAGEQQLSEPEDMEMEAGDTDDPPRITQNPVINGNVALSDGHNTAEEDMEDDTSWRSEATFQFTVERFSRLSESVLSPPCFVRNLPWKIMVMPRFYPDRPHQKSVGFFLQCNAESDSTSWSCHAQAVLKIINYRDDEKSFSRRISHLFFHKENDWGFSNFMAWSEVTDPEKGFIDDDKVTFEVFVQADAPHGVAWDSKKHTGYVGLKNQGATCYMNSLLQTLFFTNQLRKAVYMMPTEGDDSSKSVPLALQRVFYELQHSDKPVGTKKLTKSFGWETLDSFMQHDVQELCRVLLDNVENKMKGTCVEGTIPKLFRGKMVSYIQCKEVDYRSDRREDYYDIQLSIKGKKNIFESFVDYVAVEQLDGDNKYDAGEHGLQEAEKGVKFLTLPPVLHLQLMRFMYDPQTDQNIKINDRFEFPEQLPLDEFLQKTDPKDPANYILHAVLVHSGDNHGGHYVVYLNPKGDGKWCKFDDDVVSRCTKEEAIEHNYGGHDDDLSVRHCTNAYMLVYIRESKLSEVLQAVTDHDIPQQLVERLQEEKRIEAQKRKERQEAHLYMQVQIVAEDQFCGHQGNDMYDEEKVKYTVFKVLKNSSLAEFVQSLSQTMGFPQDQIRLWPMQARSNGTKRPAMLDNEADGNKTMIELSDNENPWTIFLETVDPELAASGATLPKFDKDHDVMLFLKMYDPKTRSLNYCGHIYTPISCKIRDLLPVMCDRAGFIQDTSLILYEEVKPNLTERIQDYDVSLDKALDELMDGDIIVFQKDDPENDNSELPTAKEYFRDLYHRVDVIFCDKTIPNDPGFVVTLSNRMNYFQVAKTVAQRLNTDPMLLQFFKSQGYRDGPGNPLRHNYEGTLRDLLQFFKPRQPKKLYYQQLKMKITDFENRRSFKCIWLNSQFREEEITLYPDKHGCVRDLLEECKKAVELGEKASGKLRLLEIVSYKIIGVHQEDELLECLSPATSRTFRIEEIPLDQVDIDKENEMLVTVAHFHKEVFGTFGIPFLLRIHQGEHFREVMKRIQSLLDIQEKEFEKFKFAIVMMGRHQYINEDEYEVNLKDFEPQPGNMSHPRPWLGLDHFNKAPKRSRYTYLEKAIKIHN

Results are given in words; binding and its absence hold for the method and conditions named. In cells and extracts the contact can be indirect. Some entries that bind do so weakly or less than the wild type.

Regarding “ubiquitin specific protease 7 (from UniProt Q93009 1-1102) (enzyme)”, the binding result is “binds”.

(Values after publication PMC11007818.)
